The target in the experiment is T1, nuclear factor of activated T cells c4 (rat (endogenous in NRCMs)) (UniProt D3Z9H7).
T1 sequence: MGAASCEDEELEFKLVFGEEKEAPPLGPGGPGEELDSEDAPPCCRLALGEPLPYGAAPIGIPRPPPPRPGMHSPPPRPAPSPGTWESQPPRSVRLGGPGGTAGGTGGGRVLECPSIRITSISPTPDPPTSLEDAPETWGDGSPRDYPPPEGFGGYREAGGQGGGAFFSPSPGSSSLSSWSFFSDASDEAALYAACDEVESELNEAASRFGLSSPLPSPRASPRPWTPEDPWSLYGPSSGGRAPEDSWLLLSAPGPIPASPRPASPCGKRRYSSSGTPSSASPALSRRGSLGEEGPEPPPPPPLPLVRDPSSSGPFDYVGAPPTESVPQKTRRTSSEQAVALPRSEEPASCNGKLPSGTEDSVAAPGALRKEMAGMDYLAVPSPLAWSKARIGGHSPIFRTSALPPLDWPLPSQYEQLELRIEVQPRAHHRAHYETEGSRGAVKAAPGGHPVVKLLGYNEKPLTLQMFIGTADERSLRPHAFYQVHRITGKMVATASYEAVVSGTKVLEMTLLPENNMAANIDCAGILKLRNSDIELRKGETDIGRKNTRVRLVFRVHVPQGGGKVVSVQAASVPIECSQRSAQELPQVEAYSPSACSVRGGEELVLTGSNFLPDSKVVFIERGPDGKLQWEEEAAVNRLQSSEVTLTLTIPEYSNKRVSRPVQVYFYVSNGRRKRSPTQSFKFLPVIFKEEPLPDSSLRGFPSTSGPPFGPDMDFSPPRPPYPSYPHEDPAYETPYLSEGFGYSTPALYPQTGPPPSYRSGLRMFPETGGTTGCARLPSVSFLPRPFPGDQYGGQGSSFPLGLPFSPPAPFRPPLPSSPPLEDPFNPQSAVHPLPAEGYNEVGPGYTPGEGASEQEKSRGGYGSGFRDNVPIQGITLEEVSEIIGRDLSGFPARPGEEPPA
Kind of experiment: co-IP; 200 ug total protein of NRCMs incubated with anti-NFATc4 antibody (1:200) or rat normal IgG overnight at 4°C, then protein G/A agarose beads for 4 h; washed with lysis buffer; Western blot; for p38 also after overexpression of SIRT6 or H133Y. (In western blotting, separated proteins are transferred to a membrane and probed.)

The chains behind the UniProt entries cited, without tags or fusion partners. Where a name states a change or a piece, a line headed by the entry shows the natural chain unless it says otherwise.
UniProt A6K863: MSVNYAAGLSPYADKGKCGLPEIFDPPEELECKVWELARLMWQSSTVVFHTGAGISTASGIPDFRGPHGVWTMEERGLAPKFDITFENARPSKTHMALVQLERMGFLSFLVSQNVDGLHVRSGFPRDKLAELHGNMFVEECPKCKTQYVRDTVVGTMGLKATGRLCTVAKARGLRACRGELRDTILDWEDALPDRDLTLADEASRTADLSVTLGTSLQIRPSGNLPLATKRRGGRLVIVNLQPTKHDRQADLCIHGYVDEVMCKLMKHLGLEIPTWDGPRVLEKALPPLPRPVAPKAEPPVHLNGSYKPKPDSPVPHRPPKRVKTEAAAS

These are yes or no findings as the source states them, for the method shown. In cells and extracts the contact can be indirect. Binding can be weak; no strength is given.

For the substance Sirtuin 6 (from UniProt A6K863), the binding entry is “binds”.

These data come from PMC6331469.
